At least one compound was matched to its structure with a doubt left.
Experiment: Photo-oxidation of adamantylideneadamantane, UV light source
Conditions: about 25 mg in 100 mL chlorobenzene, UV lamp 7 hours
Protocol: [e] Two beakers were irradiated simultaneously with a UV light source (Philips HB172, fitted with 4 Philips Cleo 15 W luminescent tubes; UV-type 3). Beaker 1 contained a mixture of 301.0 mg of adamantylideneadamantane and 24.9 mg of α-tocopherol (Aldrich, >97%) in 100 mL of chlorobenzene. This solution was placed in a 250 mL beaker, which was wrapped with paper and Al-foil to prevent light going through the side of the beaker. The solution was stirred magnetically and irradiated 7 hours with a UV lamp (Philips HB172, fitted with 4 Philips Cleo 15 W luminescent tubes; UV-type 3), which was mounted horizontally directly above the beakers. The reaction mixture was concentrated in vacuo and the resulting solid material was analyzed by ^1H NMR spectroscopy as described above. […] The ratio of the integrals of unreacted adamantylideneadamantane (at 2.9 ppm) to adamantylideneadamantane peroxide was 90:10.
Beaker 2 contained a mixture of 301.2 mg of adamantylideneadamantane and 25.0 mg of HG2-V2 in 100 mL of chlorobenzene. This solution was placed in a 250 mL beaker, which was wrapped with paper and Al-foil to prevent light going through the side of the beaker. […] The reaction mixture was concentrated in vacuo and the resulting solid material was analyzed by ^1H NMR spectroscopy as described above. […]

With `Cc1c(C)c2c(c(C)c1O)CC[C@@](C)(CCC[C@H](C)CCC[C@H](C)CCCC(C)C)O2` [α-tocopherol, reference compound] the “ratio of the integrals of unreacted adamantylideneadamantane (2.9 ppm) to adamantylideneadamantane peroxide” value was 90:10.
